Measured data: PubChem BioAssay AID1259425 (University of Nebraska Medical Center, 2018)

Aim: 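Compare each knockdown with KSR1 silencing using changes in marker transcripts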 (primary screen)
Cells: HCT116 human colon cancer cells
Reagents: siRNA pool against human genes, 50 nM siRNA
Detection: 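mRNA of six signature genes measured together by branched-DNA assay after 50 nM siRNA pool, blank removed, divided by geometric mean of two housekeeping genes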
Direction: BNIP3L mRNA: higher = more BNIP3L transcript after knockdown; NDRG1 mRNA: higher = more NDRG1 transcript after knockdown; BNIP3 mRNA: higher = more BNIP3 transcript after knockdown; ALDOC mRNA: higher = more ALDOC transcript after knockdown
This is a random part of about 14,000 deposited reagents. A reagent listed more than once was tested more than once; the source does not tell the runs apart. Further read-outs or replicates are left out here. No sequences are given here. Not given: the time to read-out.

no.	gene knocked down	BNIP3L mRNA, set 1	NDRG1 mRNA, set 1	BNIP3 mRNA, set 1	ALDOC mRNA, set 1
1	SELENON	0.672	0.185	-0.105	0.019
2	BCAT1	0.118	0.117	0.328	0.0283
3	NELFCD	0.138	0.264	0.431	0.0853
4	C6orf47	0.0934	0.227	0.478	0.0236
5	MCM5	0.125	0.372	0.308	0.0122
6	SRY	0.243	0.229	0.367	0.0168
7	VIPR1	0.0827	0.143	0.267	0.0395
8	SH3GL3	0.349	1.31	0.613	0.0115
9	OLFM1	0.0959	0.236	0.484	0.037
10	OLFM1	0.116	0.259	0.531	0.0829
11	KIAA1143	0.137	0.15	0.402	0.03
12	SLITRK3	0.0923	0.287	0.395	0.0351
13	ELK1	0.165	0.138	0.499	0.0228
14	ST6GALNAC2	0.0573	0.228	0.281	0.0711
15	ATP9A	0.114	0.192	0.223	0.0259
16	ADAP1	0.12	0.187	0.225	0.012
17	ST13	0.0546	0.0674	0.232	0.00668
18	PPARGC1A	0.106	0.327	0.514	0.00858
19	NCAPH2	0.112	0.356	0.314	0.0429
20	KIF2C	0.11	0.244	0.274	0.0161
21	OR1J2	0.423	0.46	0.783	0.084
22	OR1J2	0.239	0.24	0.532	0.0986
23	HRK	0.127	0.129	0.271	0.0293
24	DNAJB6	0.181	0.236	0.323	0.0545
25	ZNF200	0.0863	0.0445	0.271	0.018
26	MINK1	0.128	0.24	0.242	0.0274
27	AICDA	0.0909	0.0432	0.262	0.0234
28	AP4S1	0.157	0.658	0.306	0.0214
29	STAB1	0.075	0.134	0.268	0.0196
30	SERPINA1	0.223	0.488	0.244	0.0173
31	OR10A5	0.0787	0.138	0.391	0.0597
32	SCML1	0.118	0.0535	0.413	0.0181
33	ANAPC4	0.107	0.188	0.232	0.0168
34	VPS28	0.0842	0.273	0.426	0.0276
35	CSGALNACT2	0.0706	0.334	0.344	0.0231
36	PLAC8	0.215	0.0817	0.27	0.0609
37	DTNBP1	0.0682	0.191	0.315	0.035
38	ATP2C2	0.115	0.144	0.301	0.0189
39	SLC25A17	0.124	0.261	0.389	0.0362
40	SLC19A4P	0.117	0.213	0.239	0.0399
41	SLC38A4	0.0904	0.255	0.289	0.0272
42	SLAIN2	0.0633	0.147	0.335	0.026
43	FAM184B	0.101	0.128	0.268	0.0219
44	GTPBP6	0.112	0.245	0.245	0.0145
45	TMPRSS5	0.077	0.181	0.302	0.0104
46	CBFA2T3	0.0599	0.149	0.274	0.00546
47	CRLF1	0.159	0.705	0.243	0.0207
48	RETNLB	0.164	0.153	0.212	0.05
49	GPD1L	0.0813	0.711	0.41	0.0286
50	ARL2BP	0.175	0.182	0.398	0.0353
